Assay results: paper PMC12888869 (Antimicrobial Agents and Chemotherapy, 2025)
HELM strings list residues between dots; [ac] is acetyl, [am] amide, other brackets name non-standard units.

assay: peptide made by a vendor (Fmoc solid-phase peptide synthesis); settings: whole synthesis, high-performance liquid chromatography

Substance | final HPLC purity [%]
PEPTIDE1{F.L.K.L.R.L.W.R.R.L.L.W.K.L.K.[am]}$$$$V2.0 | 95.25
PEPTIDE1{F.L.K.L.R.L.W.R.K.L.L.W.K.L.K.[am]}$$$$V2.0 | 95.21
PEPTIDE1{F.L.K.L.R.L.W.G.R.L.L.W.K.L.K.[am]}$$$$V2.0 | 96.68
PEPTIDE1{F.L.A.L.A.L.I.Q.E.A.I.A.K.L.K.[am]}$$$$V2.0 | 95.92
PEPTIDE1{F.L.K.L.R.L.W.K.R.L.L.W.K.L.K.[am]}$$$$V2.0 | 95.43
PEPTIDE1{F.L.K.L.R.L.W.G.K.L.L.W.K.L.K.[am]}$$$$V2.0 | 95.34
PEPTIDE1{F.L.K.L.R.L.W.K.K.L.L.W.K.L.K.[am]}$$$$V2.0 | 95.13
